{"source": "the supplement of paper PMC8728848", "experiment_in_all_cases": "glycan array binding signal (z-score within array); higher = stronger binding", "conditions_in_all_cases": "glycan notation: IUPAC condensed, linker removed", "key": {"[1]": {"molecular_target": "GlcNAc(b1-3)Gal(b1-4)GlcNAc(b1-3)Gal(b1-4)GlcNAc(b1-3)GalNAc", "outline": "(§1)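 The Consortium for Functional Glycomics database supplied 3228 glycan arrays, of which those lacking an available protein sequence were dropped. The binding signal, a within-array Z-score, was averaged across arrays of the same protein sequence and across linkers. Negative scores can be read as non-binding.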"}, "[2]": {"molecular_target": "GlcNAc(b1-3)Gal(b1-4)GlcNAc(b1-3)GalNAc", "outline": "as §1"}, "[3]": {"molecular_target": "GlcNAc(b1-3)Gal(b1-4)GlcNAc(b1-3)[GlcNAc(b1-3)Gal(b1-4)GlcNAc(b1-3)]GalNAc", "outline": "as §1"}, "[4]": {"molecular_target": "GlcNAc(b1-3)Gal(b1-4)GlcNAc(b1-6)[Gal(b1-3)]GalNAc", "outline": "as §1"}, "[5]": {"molecular_target": "GlcNAc(b1-3)Gal(b1-4)GlcNAc(b1-6)[GlcNAc(b1-3)Gal(b1-3)]GalNAc", "outline": "as §1"}, "[6]": {"molecular_target": "GlcNAc(b1-3)Gal(b1-4)GlcNAc(b1-6)[GlcNAc(b1-3)]Gal(b1-4)GlcNAc", "outline": "as §1"}, "GlcNAc(b1-3)GalNAc": {"molecular_target": "GlcNAc(b1-3)GalNAc", "outline": "as §1"}, "GlcNAc(b1-3)Man": {"molecular_target": "GlcNAc(b1-3)Man", "outline": "as §1"}, "[7]": {"molecular_target": "GlcNAc(b1-3)[GlcNAc(b1-4)][GlcNAc(b1-6)]GlcNAc", "outline": "as §1"}, "[8]": {"molecular_target": "GlcNAc(b1-3)[GlcNAc(b1-6)]Gal(b1-4)GlcNAc", "outline": "as §1"}, "[9]": {"molecular_target": "GlcNAc(b1-3)[GlcNAc(b1-6)]GalNAc", "outline": "as §1"}, "[10]": {"molecular_target": "GlcNAc(b1-4)Gal(b1-4)GlcNAc", "outline": "as §1"}, "GlcNAc(b1-4)GlcNAc": {"molecular_target": "GlcNAc(b1-4)GlcNAc", "outline": "as §1"}, "[11]": {"molecular_target": "GlcNAc(b1-4)GlcNAc(b1-4)GlcNAc", "outline": "as §1"}, "[12]": {"molecular_target": "GlcNAc(b1-4)GlcNAc(b1-4)GlcNAc(b1-4)GlcNAc(b1-4)GlcNAc", "outline": "as §1"}, "[13]": {"molecular_target": "GlcNAc(b1-4)GlcNAc(b1-4)GlcNAc(b1-4)GlcNAc(b1-4)GlcNAc(b1-4)GlcNAc", "outline": "as §1"}, "[14]": {"molecular_target": "GlcNAc(b1-4)[GlcNAc(b1-6)]GalNAc", "outline": "as §1"}, "[15]": {"molecular_target": "GlcNAc(b1-6)Gal(b1-4)GlcNAc", "outline": "as §1"}, "GlcNAc(b1-6)GalNAc": {"molecular_target": "GlcNAc(b1-6)GalNAc", "outline": "as §1"}, "[16]": {"molecular_target": "GlcNAc6S(b1-3)Gal(b1-4)GlcNAc", "outline": "as §1"}, "Kdn(a2-3)Gal(b1-3)GalNAc": {"molecular_target": "Kdn(a2-3)Gal(b1-3)GalNAc", "outline": "as §1"}, "Kdn(a2-3)Gal(b1-3)GlcNAc": {"molecular_target": "Kdn(a2-3)Gal(b1-3)GlcNAc", "outline": "as §1"}, "Kdn(a2-3)Gal(b1-4)Glc": {"molecular_target": "Kdn(a2-3)Gal(b1-4)Glc", "outline": "as §1"}, "Kdn(a2-3)Gal(b1-4)GlcNAc": {"molecular_target": "Kdn(a2-3)Gal(b1-4)GlcNAc", "outline": "as §1"}, "[17]": {"molecular_target": "Kdn(a2-3)Gal(b1-4)[Fuc(a1-3)]GlcNAc", "outline": "as §1"}, "Kdn(a2-6)Gal(b1-4)GlcNAc": {"molecular_target": "Kdn(a2-6)Gal(b1-4)GlcNAc", "outline": "as §1"}, "[18]": {"molecular_target": "Man(a1-2)Man(a1-2)Man(a1-3)Man", "outline": "as §1"}, "[19]": {"molecular_target": "Man(a1-2)Man(a1-2)Man(a1-6)[Man(a1-3)]Man", "outline": "as §1"}, "Man(a1-2)Man(a1-3)Man": {"molecular_target": "Man(a1-2)Man(a1-3)Man", "outline": "as §1"}, "[20]": {"molecular_target": "Man(a1-2)Man(a1-3)[Man(a1-2)Man(a1-6)]Man", "outline": "as §1"}, "[21]": {"molecular_target": "Man(a1-2)Man(a1-3)[Man(a1-2)Man(a1-6)]Man(a1-6)[Man(a1-2)Man(a1-2)Man(a1-3)]Man", "outline": "as §1"}, "[22]": {"molecular_target": "Man(a1-2)Man(a1-3)[Man(a1-2)Man(a1-6)]Man(a1-6)[Man(a1-2)Man(a1-2)Man(a1-3)]Man(b1-4)GlcNAc(b1-4)GlcNAc", "outline": "as §1"}, "[23]": {"molecular_target": "Man(a1-2)Man(a1-3)[Man(a1-6)]Man(a1-6)[Man(a1-2)Man(a1-3)]Man(b1-4)GlcNAc(b1-4)GlcNAc", "outline": "as §1"}, "[24]": {"molecular_target": "Man(a1-2)Man(a1-6)[Man(a1-3)]Man(a1-6)[Man(a1-2)Man(a1-2)Man(a1-3)]Man", "outline": "as §1"}, "[25]": {"molecular_target": "Man(a1-2)Man(a1-6)[Man(a1-3)]Man(a1-6)[Man(a1-2)Man(a1-2)Man(a1-3)]Man(b1-4)GlcNAc(b1-4)GlcNAc", "outline": "as §1"}, "Man(a1-3)[Man(a1-6)]Man": {"molecular_target": "Man(a1-3)[Man(a1-6)]Man", "outline": "as §1"}, "[26]": {"molecular_target": "Man(a1-3)[Man(a1-6)]Man(a1-6)[Man(a1-2)Man(a1-3)]Man(b1-4)GlcNAc(b1-4)GlcNAc", "outline": "as §1"}}, "note": "This is one part of the list."}
{"binder": "SJCP1531 (Schistosoma japonicum) (protein) MFKVRIINLVNISTVLLLINLLQTKSQVNVEQLVTVLEVNIKAQLKNKTTEVLVEWNPLYQDNSMPEYRKLLDETCKLFLPFVNEKVPPSTYGGECTNANFSEAPQDGSYSRVNAELRLIYKYSDNPQIQTDRLQDDLNDREEFITSESSFVAYNPKFTVKIEKLFIPISESQTTPPPTTAKNDASKKDDDDNGGEDSKAPIDTFAMTASGNKGKKDDDDNGGEDSKAPIDTFAMTASGSKDERSTWTIIGIITLVVLIFVVIGGGITVFVKRC", "values": [{"measurement": "glycan array binding signal (z-score)", "setting": "[1]", "result": -0.547}, {"measurement": "glycan array binding signal (z-score)", "setting": "[2]", "result": -0.655}, {"measurement": "glycan array binding signal (z-score)", "setting": "[3]", "result": -0.117}, {"measurement": "glycan array binding signal (z-score)", "setting": "[4]", "result": -0.637}, {"measurement": "glycan array binding signal (z-score)", "setting": "[5]", "result": -1.05}, {"measurement": "glycan array binding signal (z-score)", "setting": "[6]", "result": -1.27}, {"measurement": "glycan array binding signal (z-score)", "setting": "GlcNAc(b1-3)GalNAc", "result": -1.42}, {"measurement": "glycan array binding signal (z-score)", "setting": "GlcNAc(b1-3)Man", "result": 1.01}, {"measurement": "glycan array binding signal (z-score)", "setting": "[7]", "result": -0.372}, {"measurement": "glycan array binding signal (z-score)", "setting": "[8]", "result": 0.523}, {"measurement": "glycan array binding signal (z-score)", "setting": "[9]", "result": 0.239}, {"measurement": "glycan array binding signal (z-score)", "setting": "[10]", "result": -0.844}, {"measurement": "glycan array binding signal (z-score)", "setting": "GlcNAc(b1-4)GlcNAc", "result": -0.124}, {"measurement": "glycan array binding signal (z-score)", "setting": "[11]", "result": -0.584}, {"measurement": "glycan array binding signal (z-score)", "setting": "[12]", "result": -0.099}, {"measurement": "glycan array binding signal (z-score)", "setting": "[13]", "result": -2.45}, {"measurement": "glycan array binding signal (z-score)", "setting": "[14]", "result": -0.845}, {"measurement": "glycan array binding signal (z-score)", "setting": "[15]", "result": -1.5}, {"measurement": "glycan array binding signal (z-score)", "setting": "GlcNAc(b1-6)GalNAc", "result": -0.143}, {"measurement": "glycan array binding signal (z-score)", "setting": "[16]", "result": -0.221}, {"measurement": "glycan array binding signal (z-score)", "setting": "Kdn(a2-3)Gal(b1-3)GalNAc", "result": -0.79}, {"measurement": "glycan array binding signal (z-score)", "setting": "Kdn(a2-3)Gal(b1-3)GlcNAc", "result": 0.26}, {"measurement": "glycan array binding signal (z-score)", "setting": "Kdn(a2-3)Gal(b1-4)Glc", "result": -1.3}, {"measurement": "glycan array binding signal (z-score)", "setting": "Kdn(a2-3)Gal(b1-4)GlcNAc", "result": -0.129}, {"measurement": "glycan array binding signal (z-score)", "setting": "[17]", "result": 0.747}, {"measurement": "glycan array binding signal (z-score)", "setting": "Kdn(a2-6)Gal(b1-4)GlcNAc", "result": -0.606}, {"measurement": "glycan array binding signal (z-score)", "setting": "[18]", "result": -1.16}, {"measurement": "glycan array binding signal (z-score)", "setting": "[19]", "result": -0.015}, {"measurement": "glycan array binding signal (z-score)", "setting": "Man(a1-2)Man(a1-3)Man", "result": 0.424}, {"measurement": "glycan array binding signal (z-score)", "setting": "[20]", "result": -1.01}, {"measurement": "glycan array binding signal (z-score)", "setting": "[21]", "result": -0.804}, {"measurement": "glycan array binding signal (z-score)", "setting": "[22]", "result": -1.21}, {"measurement": "glycan array binding signal (z-score)", "setting": "[23]", "result": -1.4}, {"measurement": "glycan array binding signal (z-score)", "setting": "[24]", "result": -0.014}, {"measurement": "glycan array binding signal (z-score)", "setting": "[25]", "result": -0.843}, {"measurement": "glycan array binding signal (z-score)", "setting": "Man(a1-3)[Man(a1-6)]Man", "result": 0.921}, {"measurement": "glycan array binding signal (z-score)", "setting": "[26]", "result": -0.185}]}
